Measurements taken from US20200354468A1 (US Dept. of Health and Human Services, published 2020).
No constants are given. Whether binding was seen depends on the method and setting. Some entries that bind do so weakly or less than the wild type.

Key:
[1] = target: T1, CD133 protein (human), as expressed by human cell lines and tumor tissue (Homo sapiens) (UniProt O43490); test: Western blot of lysates of CD133-expressing cells
T1 sequence (chain, unglycosylated (97 kDa) and glycosylated (about 120-133 kDa) forms detected): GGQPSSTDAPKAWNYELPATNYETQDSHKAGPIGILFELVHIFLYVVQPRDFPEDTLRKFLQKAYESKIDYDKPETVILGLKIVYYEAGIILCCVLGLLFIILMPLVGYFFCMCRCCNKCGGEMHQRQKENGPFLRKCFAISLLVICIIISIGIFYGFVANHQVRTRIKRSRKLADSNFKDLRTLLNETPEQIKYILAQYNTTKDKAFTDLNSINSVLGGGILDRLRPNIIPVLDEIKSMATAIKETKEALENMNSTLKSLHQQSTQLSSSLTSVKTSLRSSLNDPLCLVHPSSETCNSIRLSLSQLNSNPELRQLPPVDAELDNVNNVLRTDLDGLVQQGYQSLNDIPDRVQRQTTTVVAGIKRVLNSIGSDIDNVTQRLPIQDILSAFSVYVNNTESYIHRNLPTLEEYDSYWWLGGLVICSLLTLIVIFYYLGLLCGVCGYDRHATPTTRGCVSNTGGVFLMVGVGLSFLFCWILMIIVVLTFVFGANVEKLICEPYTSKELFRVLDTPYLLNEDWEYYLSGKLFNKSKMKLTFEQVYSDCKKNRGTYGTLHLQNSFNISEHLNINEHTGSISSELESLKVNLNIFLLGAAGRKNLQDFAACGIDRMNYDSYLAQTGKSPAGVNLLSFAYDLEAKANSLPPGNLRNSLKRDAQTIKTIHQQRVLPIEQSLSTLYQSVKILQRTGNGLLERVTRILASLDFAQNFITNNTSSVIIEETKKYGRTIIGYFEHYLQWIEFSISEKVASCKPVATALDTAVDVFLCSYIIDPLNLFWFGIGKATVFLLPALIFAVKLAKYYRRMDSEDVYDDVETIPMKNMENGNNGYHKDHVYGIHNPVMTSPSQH

[2] = target: T1, CD133 protein (human), as expressed by human cell lines and tumor tissue (Homo sapiens); test: immunofluorescence on FFPE human tumor micro arrays
[3] = target: T1, CD133 protein (human), as expressed by human cell lines and tumor tissue (Homo sapiens); test: immunofluorescence on H596 xenograft tumor sections
[4] = target: T1, CD133 protein (human), as expressed by human cell lines and tumor tissue (Homo sapiens); test: immunofluorescence on FFPE melanoma tumor array
[5] = target: T1, CD133 protein (human), as expressed by human cell lines and tumor tissue (Homo sapiens); test: Western blot of crude cell lysates, primary antibody 1 ug/ml
[6] = target: T1, CD133 protein (human), as expressed by human cell lines and tumor tissue (Homo sapiens); test: immunofluorescence on FFPE cell pellets (HT29, SW620, U87), 10 ug/ml
[7] = target: T1, CD133 protein (human), as expressed by human cell lines and tumor tissue (Homo sapiens); test: immunofluorescence on FFPE cell pellets and xenograft
[8] = target: T1, CD133 protein (human), as expressed by human cell lines and tumor tissue (Homo sapiens); test: immunofluorescence on FFPE multitumor array

Measured: binding

B1: anti-CD133 monoclonal antibody mAb 133-3 (antibody, V domains shown)
VH: QSVEESGGRLVTPGTPLTLTCTVSGFSLSRYAMSWVRQAPGKGLDWIGYIDIGGGAYYASWAKGRFTISETSTTVYLKVNSPTTEDTATYFCARGVANSDIWGPGTLVTVSS
VL: ALVMTQTPSPVSAAVGGTVTINCQSSQSVFNNKWLSWYQQKPGQPPKLLIYFVSTLASGVPSRFKGSGSGTQFTLTISGVQCDDAATYYCQGSDYSSGWYSPFGGGTEVVVEG
notes: Rabbit IgG from a hybridoma, cloned and made recombinantly in HEK293 cells
binds: all assays above
